SMILES strings stand for the structures. This is one part of the list.

The test system of the test is T1, CTL2-GFP (C. trachomatis L2/434/Bu, GFP-expressing).
T1 construct: L2/434/Bu, GFP-expressing
The arrangement: species or system HeLa; Intracellular C. trachomatis growth in HeLa cells, bulk GFP fluorescence relative to DMSO. The note with it: bulk GFP, single well; 28.5 h, 10 µM; inhibitor.
For the compound `COc1ccc(Sc2cc(C(F)(F)F)ccn2)cc1OC` [CBK093762], the “% of control remaining” value worked out at 95.2101%.

Take `O=C(CN1C(=O)c2ccccc2C1=O)Nc1sc2c(c1C(=O)NCc1ccco1)CCCC2` [CBK265670]: the “% of control remaining” value was 100%.

As for `C(=C\c1nccnc1OCCc1c[nH]c2ccccc12)/c1ccccc1` [CBK106872], the “% of control remaining” value came out at 111.486%.

For the compound `CC(=O)c1cccc(NC(=O)N(CCO)C2CCc3ccccc32)c1` (stereo not drawn) [CBK305517], the “% of control remaining” value was 127.061%.

With `CCN(CC)c1ccc(C(=O)CN2CCN(c3nccnc3OCCN3CCOCC3)CC2)cc1` [CBK082898T], the “% of control remaining” value is recorded as 94.6762%.

With `O=C(c1cc(S(=O)(=O)N2CCOCC2)ccc1Cl)N1CCCC(CO)C1` (stereo not drawn) [CBK304236], the “% of control remaining” value amounted to 136.531%.

For `Cc1c(-c2cc(C(F)F)n3nc(CCC(=O)O)nc3n2)cnn1C` [CBK286888], the “% of control remaining” value came to 133.392%.

As for `CC(C)[C@H]1CN(Cc2ccco2)CCN1Cc1ccco1` [CBK284271], the “% of control remaining” value came out at 135.217%.

With `CCc1c(C(=O)NC2CCCOC2)[nH]c2ccc(F)cc12` (stereo not drawn) [CBK283115], the “% of control remaining” value is on record as 89.6347%.

On to `COCOc1ccc(-c2nccnc2OC)cc1` [CBK106914], for which the “% of control remaining” value is on record as 103.994%.

Regarding `CCCS(=O)(=O)NC1CC(C)(C)Cc2c1cnn2-c1ccccc1` (stereo not drawn) [CBK307265], the “% of control remaining” value was determined as 109.522%.

Regarding `CC1CCC(N(CCCN)Cc2ccco2)CC1C` (stereo not drawn) [CBK268947], the “% of control remaining” value was 162.516%.

For `CC(=O)Nc1cccc(CN2CCCC(CO)C2)c1` (stereo not drawn) [CBK305527], the “% of control remaining” value is given as 112.764%.

Turning to `CCc1nc2c(Oc3nc4ccccc4s3)cccn2c1N(C)C(=O)C(C)C` [CBK147765], the “% of control remaining” value is recorded as 107.128%.

With `COc1cc2c(cc1OC)C1=NNC(=O)C1=NC(C)(C)C2` [CBK288353], the “% of control remaining” value worked out at 33.9514%.

Consider `CCn1nc(NC(=O)C2Cc3ccccc3CN2C)cc1C` (stereo not drawn) [CBK282133], for which the “% of control remaining” value is 168.566%.

Turning to `CC(=O)Nc1ccc(/N=C/c2ccc(Cl)cc2)cc1` [CBK015166], the “% of control remaining” value turned out to be 96.3428%.

Consider `O=c1[nH]c(=O)c2cc(S(=O)(=O)NCC3CCN(Cc4ccccc4)C3)ccc2[nH]1` (stereo not drawn) [CBK286384], for which the “% of control remaining” value turned out to be 133.647%.

As to `O=C(COc1cccnc1)N1CCCc2ccccc21` [CBK200258], the “% of control remaining” value stood at 120.568%.

Turning to `O=C(NCCn1cccn1)N1CCC(Cc2ccc(F)cc2)CC1` [CBK304381], the “% of control remaining” value is 79.9972%.

With `COc1ccc(O)c(CN(C)CCN(C)C)c1` [CBK261854], the “% of control remaining” value is 113.589%.

Turning to `CC1CC1C(=O)N1CCCC(c2nn(C)c3ncccc23)C1` (stereo not drawn) [CBK282167], the “% of control remaining” value is given as 128.832%.

`CCc1nn(CC(=O)N2CCCC2)c(=O)c2cc3occc3n12` [CBK283748]: the “% of control remaining” value is listed as 126.113%.

As for `CNC(=O)C1CCCCN1C(=O)c1cn(CCOC)c2ccccc12` (stereo not drawn) [CBK306308], the “% of control remaining” value came out at 96.5226%.

Consider `O=c1ccc2ccc(-c3ccsc3)nc2[nH]1` [CBK073710], for which the “% of control remaining” value is 127.035%.

Regarding `CC(C)(C)OC(=O)N1CCC(Oc2nccnc2OCc2ccc(Cl)cc2F)CC1` [CBK163968], the “% of control remaining” value came to 106.71%.

For `O=c1[nH]c2ncc(-c3cncc4ccccc34)nc2n1CCCO` [CBK064814], the “% of control remaining” value is 89.9951%.

Take `Cn1c(CN2CCOCC2)nnc1SCC(=O)Nc1cccc(F)c1` [CBK269629]: the “% of control remaining” value is on record as 166.335%.

For the compound `O=S(=O)(Nc1ccc2[nH]ccc2c1)c1c(Cl)cc(C(F)(F)F)cc1Cl` [CBK156328], the “% of control remaining” value came to 115.715%.

For the compound `CCNS(=O)(=O)C1CCN(c2cc(C#N)ccc2C(F)(F)F)C1` (stereo not drawn) [CBK305402], the “% of control remaining” value is 93.9177%.

For the compound `O=C(Nc1ccc(Br)cc1C(=O)O)c1ccc2c(c1)C(=O)N(Cc1cccnc1)C2=O` [CBK266776], the “% of control remaining” value was found to be 131.111%.

In the case of `COc1ccc(CCC(=O)Nc2cccc(OCCC3CCNCC3)c2)cc1OC` [CBK138350], the “% of control remaining” value stood at 118.057%.

For the compound `COc1ccc(CNC(=O)NC(=O)C2CCN(S(C)(=O)=O)CC2)c(OC)c1` [CBK034861], the “% of control remaining” value was determined as 138.811%.

Take `O=C(NCc1ccc2c(c1)CCN2C(=O)c1ccncc1)c1cccc(F)c1` [CBK288586]: the “% of control remaining” value came out at 113.05%.

`Cc1nc(C)n(CC2CCCN(Cc3cn4ccccc4c3C#N)C2)n1` (stereo not drawn) [CBK306103]: the “% of control remaining” value was 126.948%.

As for `Cc1ccc2nc(-c3ccc(NC(=O)CSc4nc(-c5ccccc5)cc(=O)[nH]4)cc3)sc2c1` [CBK265861], the “% of control remaining” value is listed as 195.838%.

`CC(=O)N1CCC2(C/C=C/C[C@H]3CN(C(=O)CC4CCOCC4)CC[C@H]3NC(=O)CNC2=O)CC1` [CBK292109]: the “% of control remaining” value is 127.979%.

In the case of `O=C(CSc1nc2cc(Cl)ccc2[nH]1)Nc1ccccc1F` [CBK269916], the “% of control remaining” value is 90.3135%.

Take `c1ccc(CSc2nnc(-c3ccco3)o2)cc1` [CBK026283]: the “% of control remaining” value is recorded as 118.422%.

For the compound `CN(C(=O)C1(NC(N)=O)CC1)c1nc2c(s1)CC(c1ccccc1)CC2` (stereo not drawn) [CBK306022], the “% of control remaining” value was 105.301%.

`CC(C)n1c(=O)c2c(-c3cc(C(C)(C)C)no3)ncn2c2ccccc21` [CBK016666]: the “% of control remaining” value is on record as 132.866%.

Turning to `COc1ccc(-c2n[nH]c(=S)n2CC(=O)N2CCN(c3cccc(C)c3)CC2)cc1` [CBK295352], the “% of control remaining” value turned out to be 148.193%.

Regarding `Nc1n[nH]c(=O)c2ncn([C@H]3C[C@@H](O)[C@@H](CO)O3)c12` [CBK201233], the “% of control remaining” value is 151.933%.

`FC(F)(F)c1cccc(Nc2cncc(-c3cccs3)n2)c1` [CBK065750]: the “% of control remaining” value was determined as 117.93%.

For the compound `COc1ccc2ccccc2c1CN1CCN(C/C=C/c2ccccc2)CC1` [CBK261899], the “% of control remaining” value was found to be 93.9719%.

With `CC(C)(C)c1cc(C(=O)O)[nH]n1` [CBK260874], the “% of control remaining” value is listed as 104.813%.

Regarding `CCc1nc(CN2CCOC(c3ccc(F)cc3)C2)cs1` (stereo not drawn) [CBK305090], the “% of control remaining” value came out at 120.694%.

On to `COc1nc2ccccc2nc1CCC(=O)NC(C)c1ccccc1` (stereo not drawn) [CBK270065], for which the “% of control remaining” value was 109.263%.

Turning to `CCN1CCN(Cc2c(C3CCCC3)[nH]c3ncccc23)CC1` [CBK285386], the “% of control remaining” value was determined as 118.687%.

Consider `CC(C)c1ccc(-c2cncc(NCCCN3CCOCC3)n2)cc1` [CBK065196], for which the “% of control remaining” value is 175.385%.

For the compound `Nc1ncc(-c2ccc(C(=O)N3CCOCC3)cc2)cc1C(=O)NCCc1ccc(O)cc1` [CBK158577], the “% of control remaining” value came to 116.578%.

Source of the values: publication PMC12040169 (PLOS Biology, 2025).
